# Screening data, single-dose tests

Mtb glucose medium: 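Whole-cell growth test on Mycobacterium tuberculosis, read after 3 days in glucose-containing 7H9 medium; the read-out is not stated. Tested at 50 µM. Direction is inferred from retests: higher values go with more growth inhibition. Size under these conditions: about 69,000 compounds, about 760 of them at 50% or above in at least one test.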
Mtb cholesterol medium: 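Growth of Mycobacterium tuberculosis over 4 days (cholesterol / DPPC medium with tyloxapol); the read-out is not stated. Compounds at 50 µM. Higher reads as more growth inhibition (inferred: compounds with an IC50 in retests scored well above the rest). About 69,000 compounds were tested under these conditions; 0.54% (about 370) showed 50% or more at least once.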

Results are given as percent effect.
The record does not define 0% and 100%; most values in the screen are far below 50% and negative numbers occur (in some assays of this library far below -100).
The compounds are a random part of those screened.
Two or more numbers in one place are separate tests of the same structure; such repeats can differ widely.

SMILES,Mtb glucose medium,Mtb cholesterol medium
CC1CCN(C(=O)c2occc2COc2cccc(C#N)c2)CC1,48.65,39.96
O=C(NCc1ccc(CN2CCCCC2)cc1)Nc1cccnc1,-39.87,3.631 & -4.259
CC(C)S(=O)(=O)N1CCCC(c2nccn2Cc2cccnc2)C1 (stereo not drawn),26.74,8.991
CC(C)C[C@H](N)COc1cccc(F)c1Oc1ccc(Cl)cc1,70.56,93.35
Cc1nc(CN2CCC3(CC2)CC(c2cccnc2)C(=O)N3C)cs1.O=C(O)C(F)(F)F.O=C(O)C(F)(F)F (stereo not drawn),5.378,-1.013
Cc1nc(CN(C)C2CCCN(c3cccnn3)C2)oc1C (stereo not drawn),14.73,-9.679
COCCN(Cc1ccc(C)cc1)Cc1nccn1C,9.026,11.27
CS(=O)(=O)NCCNC(=O)C1(c2ccc(F)cc2)CC1,-8.325,-7.587
COc1ccc(C(C)N(C)Cc2c(C3CC3)[nH]c3ncccc23)cc1.Cl (stereo not drawn),-18.34,1.338 & 6.801
Cc1ccc2nc(-c3nc4c([nH]3)CC(C)(C)CNC4=O)cn2c1,11.82,-3.306
Nc1nccc(N[C@H]2CN(CC(=O)NC3CCCCC3)C[C@@H]2C2CC2)n1,6.028,-22
O=C(c1ccc(CN2CC(n3cccn3)C2)cc1)N1CCCC1,-17.44,-17.41
Cc1cccc(N2CC3(CCN(S(=O)(=O)C4CC4)C3)C2)n1.O=C(O)C(F)(F)F,-1.843 & -24.72,2.599
CCc1nnc2n1CCN(C(=O)c1cnc(C3CC3)s1)C2,-5.951,-26.39
O=C(c1ccno1)N1CCn2cc(CN3CCCCC3)nc2C1,12.35,-11.94 & -9.434
CC[C@H](N)Cn1nc(-c2cccs2)oc1=O.Cl,5.116,-21.51
COc1ccc(OCC(=O)NC(C)c2ccc(F)cc2)c(C(=O)O)c1 (stereo not drawn),21.4,-11
CC(C)(O)CCc1cccc(C(=O)N2Cc3cnn(CCO)c3C2)c1,14.99 & -0.205,6.065
COc1ccc(OC)c(C2CCN(C3CCOCC3)C2)c1 (stereo not drawn),-14.52,-27.43
CCN(Cc1noc(CC(C)C)n1)Cc1ccccc1C(=O)O,-8.872,-25.87
CCc1nc(C2CCCN2C(=O)c2cnc3n[nH]c(C)c3c2)no1 (stereo not drawn),-19.76 & -2.561,1.024
CCS(=O)(=O)N1CCCC2(CCCC(=O)N2C)C1 (stereo not drawn),-3.082,7.594
Fc1cccc(-n2ccc(CN3CCCC3Cn3cccn3)n2)c1 (stereo not drawn),29.88,4.886
O=C(NCCn1nc2ccccn2c1=O)c1cccc2[nH]ncc12,10.26,-16.75
CCc1[nH]ncc1C(=O)N1CCCC(n2cncn2)C1 (stereo not drawn),-17.18,-1.005
Cc1ccc(O)c(CNC2CCc3nc(C(C)C)nn3C2)n1 (stereo not drawn),3.521 & 8.611,8.983
NC(=O)CN1CCCN(C(=O)c2ccn(-c3ccc(F)cc3)n2)CC1,0.3929,-21.22
COc1ccccc1C1(C(=O)NCCN2CCCCC2)CCOCC1,-56.02,-34.93
O=C(NC1CC1)C(c1ccccc1)N1CCN(Cc2ccc(Cl)s2)CC1 (stereo not drawn),-7.272,-26.39
COc1cc(C)ccc1S(=O)(=O)N1CC[C@](C)(O)[C@H](C)C1,16.86,12.21
CC(C)CCN1C(=O)C2(NC(=O)c3ccccc3O2)c2ccccc21 (stereo not drawn),29.95 & 28.07,14.86
COc1ccc(-c2ccccc2CCN)c(OC)c1OC,53.44 & 50.26,26.01
Cc1cc(C)n(-c2ccc(C(C)NS(=O)(=O)CCCS(C)(=O)=O)cc2)n1 (stereo not drawn),-8.152,-7.647
Nc1nc(CCCNC(=O)C2CCCN(Cc3ccco3)C2)cs1 (stereo not drawn),-9.512,-22.21 & 10.28
COc1ccc(CN2CCC3(CCCN(C)C3=O)C2)c(Cl)c1OC (stereo not drawn),-7.745 & -0.5131,-14.29
O=C(O)C(F)(F)F.O=C(c1ncccn1)N1CCC2(CC1)COC(COc1ccccn1)C2 (stereo not drawn),-10.66,3.705
CN(C)c1ncccc1CNC(=O)NCc1cccs1,7.557,-7.404
O=c1c(NCCOCCO)c(N2CCN(c3ccccc3)CC2)c1=O,22.89,-0.4301
[H][C@]12CC[C@](O)(CC1)C(COC)N2S(=O)(=O)c1cn(C)cn1 (stereo partly drawn),-30.03,-4.852
O=C(O)C(F)(F)F.O=C(O)C(F)(F)F.c1cnc(N2CCC3(CCN(Cc4ccncc4)CC3)CC2)nc1,1.761,-6.658
Cc1nn(Cc2ccc(C(=O)NCCCN3CCOCC3)o2)c(C)c1Cl,4.727,-4.976
Fc1cccc(-c2nc(CN3CCCCC3Cn3cncn3)co2)c1 (stereo not drawn),-0.1038,7.601
CCc1cc(C(=O)N2CCC(Nc3ccc(C)nn3)CC2)sc1C,33.88,40.31
O=C(O)C(F)(F)F.O=C(O)C(F)(F)F.c1ccc(O[C@H]2CO[C@@]3(CCN(Cc4ccc5c(c4)OCO5)C3)C2)nc1,7.565,-12.72 & 3.027
O=C(O)C(F)(F)F.O=C(O)C(F)(F)F.O=C(O)C(F)(F)F.[H][C@@]12CN(Cc3ccco3)CCC[C@]1(C(=O)OCC)CN(CCN(C)C)C2,3.69,-0.7295
O=C(NCc1ccco1)N1CCCCC1c1nc(C2CC2)no1 (stereo not drawn),11.15,-1.724
O=C(NCc1ccc2c(c1)OCO2)c1ccc(N2CCCCCC2)nc1,-7.499,-12.09

5 of the entries, repeated:

| SMILES | Mtb glucose medium | Mtb cholesterol medium |
|---|---|---|
| `CCS(=O)(=O)N1CCCC2(CCCC(=O)N2C)C1` (stereo not drawn) | -3.082 | 7.594 |
| `CCc1cc(C(=O)N2CCC(Nc3ccc(C)nn3)CC2)sc1C` | 33.88 | 40.31 |
| `O=C(NCc1ccc(CN2CCCCC2)cc1)Nc1cccnc1` | -39.87 | 3.631 & -4.259 |
| `O=C(O)C(F)(F)F.O=C(O)C(F)(F)F.c1ccc(O[C@H]2CO[C@@]3(CCN(Cc4ccc5c(c4)OCO5)C3)C2)nc1` | 7.565 | -12.72 & 3.027 |
| `Nc1nccc(N[C@H]2CN(CC(=O)NC3CCCCC3)C[C@@H]2C2CC2)n1` | 6.028 | -22 |

Data taken from ChEMBL document CHEMBL3988442, “University of Dundee, Small-Polar-MMV Screening Library” (2021).